# Data from PubChem BioAssay (NCATS).
# The inconclusive results got no clear call from the source; some entries with a clear call stand among them for comparison. Potencies beside an inconclusive call are fits to weak or partial responses and may not hold up. The source made the active and inactive calls. Calls come from the whole dose curve; as a rule, active = well fitted cell-killing curve with a large enough effect; inconclusive = small, poorly fitted or top-dose-only effect, or effect the other way; inactive = no such curve, though single readings can be large or run the other way.
# What was measured:
# [1] = Quantitative High-Throughput drug screen in 47 multiple myeloma cell lines against the NCATS MIPE library collection: Delta47_JCRB cell viability assay (AID 1918925; note: nearly all actives have a fitted effect of over 45% in size); conditions: Delta47 myeloma viability, CellTiter-Glo ATP, 48 h; viability (% of DMSO): at 45.8 µM (top of the series)
# Outline: (§1)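 We plated 500 myeloma cells per well, pinned in MIPE 4.0 compounds, and incubated for 48 hours at 37C. ATP was then quantified with CellTiter-Glo, with DMSO and media-only wells defining 100% and 0%.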
# [2] = Quantitative High-Throughput drug screen in 47 multiple myeloma cell lines against the NCATS MIPE library collection: EJM_DSMZ cell viability assay (AID 1918926; note: nearly all actives have a fitted effect of over 30% in size); conditions: EJM myeloma cell viability, CellTiter-Glo ATP, 48 h; viability, % of control: at 45.8 µM (top of the series)
# Outline: as §1
# [3] = Quantitative High-Throughput drug screen in 47 multiple myeloma cell lines against the NCATS MIPE library collection: ARD_JJKsccE7 cell viability assay (AID 1918929); conditions: ARD myeloma cell line viability, CellTiter-Glo, 48 h; viability: at 45.8 µM (top of the series)
# Outline: as §1
# [4] = Quantitative High-Throughput drug screen in 47 multiple myeloma cell lines against the NCATS MIPE library collection: Karpas620_DSMZ cell viability assay (AID 1918959); conditions: Karpas620 myeloma viability, CellTiter-Glo ATP luminescence, 48 h; viability (% of DMSO): at 45.8 µM (top of the series); note: nearly all actives have a fitted effect of over 30% in size
# Outline: (§2)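 Myeloma cell lines, 500 cells per well, exposed to MIPE 4.0 library compounds for 48 h at 37C, 5% CO2. Viability from ATP by CellTiter-Glo luminescence; normalised to DMSO (100%) and media-only (0%) wells.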
# [5] = Quantitative High-Throughput drug screen in 47 multiple myeloma cell lines against the NCATS MIPE library collection: KMM1_JCRB cell viability assay (AID 1918960); conditions: KMM1 myeloma viability, CellTiter-Glo ATP luminescence, 48 h; viability (% of DMSO): at 45.8 µM (top of the series); note: nearly all actives have a fitted effect of over 30% in size;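 for viability (% of DMSO): 100% = DMSO-treated cells and 0% = medium-only wells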
# Outline: (§3)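 ATP readout (CellTiter-Glo), 48 h drug incubation, 37 °C/5% CO2, 500 cells per well; normalisation to DMSO (100%) and media-only (0%) controls.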
# [6] = Quantitative High-Throughput drug screen in 47 multiple myeloma cell lines against the NCATS MIPE library collection: Karpas417_ECACC cell viability assay (AID 1918961); conditions: Karpas417 myeloma viability, CellTiter-Glo ATP luminescence, 48 h; viability (% of DMSO): at 45.8 µM (top of the series)
# Outline: as §2
# [7] = Quantitative High-Throughput drug screen in 47 multiple myeloma cell lines against the NCATS MIPE library collection: ARP1_JJKsccF8 cell viability assay (AID 1918928; note: nearly all actives have a fitted effect of over 40% in size); conditions: ARP1 myeloma cells viability, CellTiter-Glo ATP, 48 h; viability: at 45.8 µM (top of the series)
# Outline: as §3
# [8] = Quantitative High-Throughput drug screen in 47 multiple myeloma cell lines against the NCATS MIPE library collection: AMO1_DSMZ cell viability assay (AID 1918927; note: nearly all actives have a fitted effect of over 30% in size); conditions: AMO1 myeloma cells viability, CellTiter-Glo ATP luminescence, 48 h; viability, % of DMSO: at 45.8 µM (top of the series)
# Outline: as §1
# Potency is the fitted concentration of half-maximal effect.
SMILES,Potency [1],Potency [2],Potency [3],Potency [4],Potency [5],Potency [6],Potency [7],viability (% of DMSO) [4],viability (% of DMSO) [5],Potency [8]
CC(C)Oc1ccc(C(=O)N[C@H](CNC(=O)CN(C)C)Cc2ccc(-c3cn4cccc([C@H](C)O)c4n3)cc2)cc1Cl,"inconclusive: 0.148 µM [cytotoxic, full curve]","inconclusive: 2.09 µM [cytotoxic, full curve]",active: 0.264 µM,active: 0.187 µM,active: 0.209 µM,inactive,,,,
CCOc1ccn(-c2ccc(F)cc2)c(=O)c1C(=O)Nc1ccc(Oc2ccnc(N)c2Cl)c(F)c1,"inconclusive: 20.9 µM [cytotoxic, single point]","inconclusive: 16.6 µM [cytotoxic, partial curve, poor fit]",,"inconclusive: 14.8 µM [cytotoxic, partial curve, poor fit]","inconclusive: 18.7 µM [cytotoxic, partial curve]","inconclusive: 37.2 µM [cytotoxic, partial curve, poor fit]",,,,
FC(F)(F)c1ccc(C=Cc2nc(COc3ccc(CCCCn4ccnn4)cc3)co2)cc1,"inconclusive: 0.0074 µM [cytotoxic, full curve]","inconclusive: 0.0042 µM [cytotoxic, full curve]",active: 0.001 µM,,,,"inconclusive: 0.0264 µM [cytotoxic, full curve]",inconclusive: 39.9% [cytotoxic],inconclusive: 21.1% [cytotoxic],
C[C@]12C=CC(=O)C=C1CC[C@@H]1[C@@H]2[C@@H](O)C[C@@]2(C)[C@@H]1CC[C@]2(O)C(=O)CO,"inconclusive: 33.2 µM [cytotoxic, single point]",inactive,,,active: 0.209 µM,"inconclusive: 11.8 µM [rising, partial curve, poor fit]","inconclusive: 0.469 µM [cytotoxic, full curve]",,,"inconclusive: 0.0332 µM [cytotoxic, full curve, poor fit]"
C[C@]12CCC(=O)C=C1[C@@H]1CC1[C@H]1[C@H]3[C@@H]4C[C@H]4[C@@]4(CCC(=O)O4)[C@@]3(C)CC[C@H]12 (stereo partly specified),inactive,inactive,,"inconclusive: 33.2 µM [cytotoxic, single point]",active: 20.9 µM,"inconclusive: 0.0017 µM [cytotoxic, full curve, poor fit]",inconclusive: 0.001 µM,,,"inconclusive: 33.2 µM [cytotoxic, single point]"
CN1C(C(=O)Nc2ccccn2)=C(O)c2sccc2S1(=O)=O,"inconclusive: 0.0019 µM [cytotoxic, full curve, poor fit]",inactive,"inconclusive: 0.0296 µM [rising, full curve, poor fit]",,,"inconclusive: 37.2 µM [rising, partial curve, poor fit]",,,,
Clc1ccc2c(N3CCN(CCCN4CCN(c5ccnc6cc(Cl)ccc56)CC4)CC3)ccnc2c1,"inconclusive: 0.0005 µM [rising, full curve, poor fit]","inconclusive: 3.63 µM [cytotoxic, partial curve, poor fit]",,,,"inconclusive: 1.62 µM [rising, full curve, poor fit]","inconclusive: 0.0065 µM [cytotoxic, full curve, poor fit]",,,inactive
O=C(O)c1ccc(-n2nc(-c3ccccc3O)nc2-c2ccccc2O)cc1,"inconclusive: 37.2 µM [cytotoxic, single point]","inconclusive: 26.4 µM [cytotoxic, single point]","inconclusive: 29.6 µM [cytotoxic, single point]","inconclusive: 26.4 µM [cytotoxic, single point]","inconclusive: 0.833 µM [cytotoxic, full curve, poor fit]",inactive,"inconclusive: 26.4 µM [cytotoxic, single point]",,,
NC(=O)C1CCCc2c1[nH]c1ccc(Cl)cc21 (stereo unspecified),"inconclusive: 0.0037 µM [cytotoxic, full curve, poor fit]",inactive,"inconclusive: 1.18 µM [cytotoxic, full curve, poor fit]",,"inconclusive: 26.4 µM [cytotoxic, single point]",,,,,active: 14.8 µM
CCCCCOC(=O)Nc1nc(=O)n([C@@H]2O[C@H](C)[C@@H](O)C2O)cc1F (stereo partly specified),,inactive,inactive,inactive,,"inconclusive: 1.87 µM [cytotoxic, full curve, poor fit]",inactive,,,
